# ± gives the standard deviation. This is a selection; strong and weak results do not stand in their true shares. Many of these values have a large error.
# Key:
# [1] = test system: MIWI (PIWIL1) piRISC loaded with piRNA #1 (30 nt); assay: pre-steady-state target cleavage rate (min^-1); higher = faster piRNA-guided slicing of the target; details: guide: piRNA #1 5'p-UGAGGUAGUAGGUUGUAUAGUAUCCAGAGG; auxiliary factor: 500 nM mouse GTSF1;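 further: 1 nM active piRISC with 0.1 nM target library at 33 °C single turnover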
# Summary of the method: (§1)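 A burst-and-steady-state fit was used to obtain the pre-steady-state cleavage rate. The input data were sequencing reads of uncleaved targets, normalised to depth and to weakly complementary targets, from a […] transcribed, DNA-blocked target RNA library mixed with 1 nM active affinity-purified piRISC holding one synthetic guide, with or without 500 nM GTSF1 partner protein, in HEPES–potassium acetate buffer at 33 °C for 0–8 or 0–960 min. Three trials were pooled and k3 was capped at 0.0001 min^-1.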
# [2] = test system: EfPiwi piRISC loaded with piRNA #1 (26 nt); assay: pre-steady-state target cleavage rate (min^-1); guide: piRNA #1 5'p-UGAGGUAGUAGGUUGUAUAGUAUCCA; MIWI and MILI are mouse PIWI proteins and EfPiwi is from a freshwater sponge; tags in brackets are library labels; higher = faster piRNA-guided slicing of the target; details: auxiliary factor: 500 nM Ephydatia muelleri Gtsf1
# Summary of the method: as §1
sequence,measurement,setting,value
GGAGACCUAUGAAUACAUCCUACUACCUCA,pre-steady-state target cleavage rate,[1],0.00119 ± 0.0041
same,pre-steady-state target cleavage rate,[2],0.00148 ± 0.0042
GGAGACCUAUCUAAACAACCUACUACCUGA,pre-steady-state target cleavage rate,[1],0.0035 ± 0.0036
same,pre-steady-state target cleavage rate,[2],0.00128 ± 0.0063
GGAGACCUAUGAAUACAACAUACUACCUCA,pre-steady-state target cleavage rate,[1],0.000364 ± 0.0045
same,pre-steady-state target cleavage rate,[2],0.00112 ± 0.0073
GGAGACCUUACUAUACAACCUACUAGGUCA,pre-steady-state target cleavage rate,[1],0.00366 ± 0.0037
same,pre-steady-state target cleavage rate,[2],0.00329 ± 0.0035
GGAGACCUAUGAUUACAACCUACUACCUCCA,pre-steady-state target cleavage rate,[1],0.00128 ± 0.0035
same,pre-steady-state target cleavage rate,[2],0.00152 ± 0.0054
GGAGACCUAUGAUAUCAAGCUACUACCUGA,pre-steady-state target cleavage rate,[1],0.000948 ± 0.0063
same,pre-steady-state target cleavage rate,[2],0.0014 ± 0.0045
GGAGACCUAUGAAUACAUCCUACUUCCUCA,pre-steady-state target cleavage rate,[1],0.00087 ± 0.0044
same,pre-steady-state target cleavage rate,[2],0.00038 ± 0.007
GGAGACCUAUCUAUACUUGCUACUACCUCA,pre-steady-state target cleavage rate,[1],0.000943 ± 0.0057
same,pre-steady-state target cleavage rate,[2],0.000441 ± 0.0071
GGAGACCUAUCAAAACAACCUACUACCUCA,pre-steady-state target cleavage rate,[1],0.00233 ± 0.0046
same,pre-steady-state target cleavage rate,[2],0.00188 ± 0.0062
GGAGACCUAUGAUAUCAACCUACGUACCUCA,pre-steady-state target cleavage rate,[1],0.000235 ± 0.012
same,pre-steady-state target cleavage rate,[2],0.000102 ± 0.036
GGAGACCUAUGAAUACAUCCUACUACCACA,pre-steady-state target cleavage rate,[1],0.000568 ± 0.0075
same,pre-steady-state target cleavage rate,[2],0.000448 ± 0.014
GGAGACCUAUGAUUACAACCUACUACCUUA,pre-steady-state target cleavage rate,[1],0.000467 ± 0.0059
same,pre-steady-state target cleavage rate,[2],0.00206 ± 0.0044
GGAGACGAUACUAUACAGCCUACUACCUCA,pre-steady-state target cleavage rate,[1],0.668 ± 0.028
same,pre-steady-state target cleavage rate,[2],0.0104 ± 0.0039
GGAGACCUAACAAUACAACGUACUACCUCA,pre-steady-state target cleavage rate,[1],0.0017 ± 0.0063
same,pre-steady-state target cleavage rate,[2],0.00158 ± 0.0059
GGAGACCUAUGAAAACAUCCUACUACCUCA,pre-steady-state target cleavage rate,[1],0.000623 ± 0.0073
same,pre-steady-state target cleavage rate,[2],0.00025 ± 0.0083
GGAGACGAUACUAUACAACCUACUACCUUA,pre-steady-state target cleavage rate,[1],1.35 ± 0.09
same,pre-steady-state target cleavage rate,[2],0.224 ± 0.068
GGAGACCUAUCUAUACAACCUACUACACUCA,pre-steady-state target cleavage rate,[1],0.634 ± 0.061
same,pre-steady-state target cleavage rate,[2],0.00409 ± 0.0046
GGAGACCUAUCAAUACUACCUACUACCUCA,pre-steady-state target cleavage rate,[1],0.00203 ± 0.0035
same,pre-steady-state target cleavage rate,[2],0.000413 ± 0.0074
GGAGACCUAUGUAUACUUCCUACUACCUCA,pre-steady-state target cleavage rate,[1],0.000996 ± 0.0042
same,pre-steady-state target cleavage rate,[2],0.00116 ± 0.0067
GGAGACCUAUGAUUACAACCUACAUACCUCA,pre-steady-state target cleavage rate,[1],0.000816 ± 0.0041
same,pre-steady-state target cleavage rate,[2],0.000156 ± 0.016

# Already shown: entries from further up.
sequence,measurement,setting,value
GGAGACCUAUGAAUACAUCCUACUACCACA,pre-steady-state target cleavage rate,[1],0.000568 ± 0.0075
same,pre-steady-state target cleavage rate,[2],0.000448 ± 0.014
GGAGACCUAUGAUUACAACCUACUACCUUA,pre-steady-state target cleavage rate,[1],0.000467 ± 0.0059

# Source: the supplement of paper PMC10338343
